Reference: patent US20100172900A1
No constants are given. Whether binding was seen depends on the method and setting. Some results given as binding are weak or reduced against the parent protein; the word gives no strength.

Chains of the proteins cited; added tags and fusions are not shown. Lines headed by an entry give the natural chain unless they say otherwise; changes in a name come on top.
UniProt Q7Z6A9: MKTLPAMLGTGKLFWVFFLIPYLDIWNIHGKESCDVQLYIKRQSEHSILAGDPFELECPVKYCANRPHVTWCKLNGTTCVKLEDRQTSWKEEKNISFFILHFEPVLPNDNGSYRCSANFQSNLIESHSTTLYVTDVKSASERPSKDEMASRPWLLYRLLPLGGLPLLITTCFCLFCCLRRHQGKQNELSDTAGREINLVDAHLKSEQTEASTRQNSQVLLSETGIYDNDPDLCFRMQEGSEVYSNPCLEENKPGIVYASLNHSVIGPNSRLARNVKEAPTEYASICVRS

Assays:
[1] = target: recombinant human BTLA fusion protein (human) (UniProt Q7Z6A9); test: ELISA, plate coated with receptor-Ig fusion, antibody at 1 ug/mL, HRP-conjugated detection antibody
[2] = target: recombinant human BTLA fusion protein (human) (UniProt Q7Z6A9); test: BIAcore, antibody capture method

B1: 3C2 human monoclonal antibody (antibody, IgG1, V domains shown)
VH: QVQLQESGPGLVKPSETLSLTCTISGGSISNYYWNWIRQPPGKGLEWIGYIYYSTSTKYNPSLKSRVTMSVETSKNQFSLKLSSVTAADTAVYYCARVKVYSTGWFFDYWGQGTLVTVSS
VL: AIQLTQSPSSLSASVGDRVTITCRASQGISSALAWYQQKPGKAPKLLIYDASSLESGVPSRFSGSGSGTDFTLTISSLQPEDFATYYCQQFNSYPLTFGGGTKVEIK
- binding [1]: binds
- binding [2]: binds
